The data set addresses T1, Topo65 (human topoisomerase I fragment, residues 215-765) (Homo sapiens) (UniProt P11387).
T1 sequence: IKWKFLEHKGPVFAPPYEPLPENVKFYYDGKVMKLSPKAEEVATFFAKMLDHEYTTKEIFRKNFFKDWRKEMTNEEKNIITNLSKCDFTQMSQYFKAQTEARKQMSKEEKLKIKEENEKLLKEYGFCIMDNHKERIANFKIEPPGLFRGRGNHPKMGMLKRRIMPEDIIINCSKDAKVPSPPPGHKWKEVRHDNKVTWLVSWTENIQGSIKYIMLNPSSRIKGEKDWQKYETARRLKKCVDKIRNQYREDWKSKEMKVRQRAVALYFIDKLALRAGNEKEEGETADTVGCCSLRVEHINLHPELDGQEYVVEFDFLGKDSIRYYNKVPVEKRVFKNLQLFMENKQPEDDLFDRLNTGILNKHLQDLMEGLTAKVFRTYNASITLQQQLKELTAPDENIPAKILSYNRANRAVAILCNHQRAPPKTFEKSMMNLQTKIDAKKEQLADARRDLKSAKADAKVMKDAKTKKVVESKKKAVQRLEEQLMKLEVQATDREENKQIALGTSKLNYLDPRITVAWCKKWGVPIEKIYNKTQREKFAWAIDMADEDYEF
Kind of data set: enzyme reaction in vitro. The settings on record: AS strand 5' DMT on or off, cleavage and ligation to about 50 and 70 bp products, 600 mM NaCl added, sequence confirmed, purified recombinant protein.

Tags and fusion partners may be left off the protein sequences shown.

On to “AATTCGCGGCCGCAAAAAGACTTCG / CGAAGTCTTTTTGCGGCCGCG [TCRIBstBS/TCRIBstBAS]”, for which, under “5'-bridging phosphorothiolate 2 bases from 3' end of top strand”, the “activity on this sequence” value is listed as “active”. Take “AATTCGCGGCCGCAAAAAGACTTGATC / GATCAAGTCTTTTTGCGGCCGCG [TCRIBamS/TCRIBamAS]”: the “activity on this sequence” value (5'-bridging phosphorothiolate 4 bases from 3' end of top strand) is listed as “active”.

For the origin of these results see patent US20030165841, “Use of phosphorothiolate polynucleotides in ligating nucleic acids” (published 2003).
